Laboratory results as given in patent publication US20180148485A1.
These are yes or no findings as the source states them, for the method shown. Some entries that bind do so weakly or less than the wild type. Sequences can lack the tags named with a protein. One block for each binder: values may come before it.

The chains behind the UniProt entries cited, without tags or fusion partners. Residues count along the entry.
UniProt Q07011, residues 24-186: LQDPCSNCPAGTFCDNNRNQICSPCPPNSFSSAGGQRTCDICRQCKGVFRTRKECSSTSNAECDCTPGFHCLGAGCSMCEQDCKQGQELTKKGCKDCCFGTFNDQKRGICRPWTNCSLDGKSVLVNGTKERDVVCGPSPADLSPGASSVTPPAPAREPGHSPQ
UniProt P51654, residues 25-559: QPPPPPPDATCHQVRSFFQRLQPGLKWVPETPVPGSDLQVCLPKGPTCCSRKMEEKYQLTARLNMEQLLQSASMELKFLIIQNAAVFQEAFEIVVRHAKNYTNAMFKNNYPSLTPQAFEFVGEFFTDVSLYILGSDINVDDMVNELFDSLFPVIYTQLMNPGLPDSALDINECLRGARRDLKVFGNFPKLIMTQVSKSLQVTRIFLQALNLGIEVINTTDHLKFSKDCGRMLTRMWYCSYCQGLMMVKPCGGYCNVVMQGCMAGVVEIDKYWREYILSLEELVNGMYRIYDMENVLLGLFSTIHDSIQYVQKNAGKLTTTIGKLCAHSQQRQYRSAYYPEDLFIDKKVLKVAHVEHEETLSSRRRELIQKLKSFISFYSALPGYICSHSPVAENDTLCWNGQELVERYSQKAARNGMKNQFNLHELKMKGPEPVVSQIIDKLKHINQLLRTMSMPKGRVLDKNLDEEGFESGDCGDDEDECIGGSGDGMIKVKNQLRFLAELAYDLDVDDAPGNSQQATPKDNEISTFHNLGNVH

Experiments:
[1] = target: recombinant human CD137-Fc fusion protein (#838-4B-100, R&D Systems) (human) (UniProt Q07011); experiment: SPR, CD137-Fc captured by anti-human Fc antibody on CM5 chip
[2] = target: recombinant human CD137-Fc fusion protein (#838-4B-100, R&D Systems) (human) (UniProt Q07011); experiment: dual-binding ELISA, CD137-Fc coated, biotinylated GPC3 detected
[3] = target: recombinant human GPC3 (R&D Systems #2119-GP-050/CF) (human) (UniProt P51654); experiment: as above

- binding [1]: binds
- binding [2]: binds
- binding [3]: binds
B1: bispecific fusion polypeptide of SEQ ID NO: 46 (designed binder)
chain: QDSTSDLIPAPPLSKVPLQQNFQDNQFQGKWYVVGVAGNGMLREDKDPLKMRATIYELKEDKSYDVTSVAFRNKKCHYKIGTFVPGSQPGEFTLGQIKSGPGETSNLVRVVSTNYNQHAMVFFKEVRQNREWFFITLYGRTKELTSELKENFIRFSKSLGLPENHIVFPVPIDQCIDGGGGGSGGGGSQDSTSDLIPAPPLSKVPLQQNFQDNQFHGKWYVVGQAGNIRLREDKDPIKMMATIYELKEDKSYDVTMVKFDDKKCMYDIWTFVPGSQPGEFTLGKIKSFPGHTSSLVRVVSTNYNQHAMVFFKFVFQNREEFYITLYGRTKELTSELKENFIRFSKSLGLPENHIVFPVPIDQCIDG

- binding [1]: binds
- binding [2]: binds
- binding [3]: binds
B2: bispecific fusion polypeptide of SEQ ID NO: 47 (designed binder)
chain: QDSTSDLIPAPPLSKVPLQQNFQDNQFQGKWYVVGVAGNGMLREDKDPLKMRATIYELKEDKSYDVTSVAFRNKKCHYKIGTFVPGSQPGEFTLGQIKSGPGETSNLVRVVSTNYNQHAMVFFKEVRQNREWFFITLYGRTKELTSELKENFIRFSKSLGLPENHIVFPVPIDQCIDGGGGGSGGGGSQDSTSDLIPAPPLSKVPLQQNFQDNQFHGKWYVVGQAGNIRLREDKDPIKMMATIYELKEDKSYDVTMVKFDDKKCMYDIWTFVPGSQPGEFTLGKIKSFPGHTSSLVRVVSTNYNQHAMVFFKFVFQNREEFYITLYGRTKELTSELKENFIRFSKSLGLPENHIVFPVPIDQCIDGGGGGSGGGGSQDSTSDLIPAPPLSKVPLQQNFQDNQFHGKWYVVGQAGNIRLREDKDPIKMMATIYELKEDKSYDVTMVKFDDKKCMYDIWTFVPGSQPGEFTLGKIKSFPGHTSSLVRVVSTNYNQHAMVFFKFVFQNREEFYITLYGRTKELTSELKENFIRFSKSLGLPENHIVFPVPIDQCIDG
